This note sets out measurements from US20250198992A1, “IN VITRO METHODS” (HALEON CH SARL, priority 2022, published 2025).

The nature of this data set: Non-specific adsorption of diclofenac on the OFM probes and tubing. To be noted: 6 h perfusion of 1 μg mL^−1 test solution with 1% HSA; inflow vs outflow concentration. As for the experimental part:
Two test solutions of diclofenac diethyl amine salt (DDEA) and diclofenac sodium salt (DNa) were tested. […] Samples were collected in 1 h intervals. Syringes and Eppendorf® vials were used to deliver test solution to the OFM outlet sections and tubing, respectively. Samples from the syringes and from the Eppendorf® vials were taken at the start (t=0 h) and at the end (t=6 h) of the experiment to determine the concentration entering the OFM probe and tubing. Syringes, dosing needles, Eppendorf® vials, and pipette tips were coated with each test solution prior to use. For coating, the samples were filled with test solutions and maintained at room temperature for 30 min. Afterwards, the coating test solutions were discarded. Pipette tips underwent three cycles of filling and emptying of test solutions. The fourth filling of the pipette tip was used as the sample. Adsorption was assessed by comparing inflow to outflow concentrations. […] LLOQ was 10 ng mL^-1.

On to `O=C(O)Cc1ccccc1Nc1c(Cl)cccc1Cl` [DDEA, diclofenac diethylammonium], for which the “adsorption to the OFM probes” value is “absence of adsorption” and the “adsorption to the OFM tubing material” value was “absence of adsorption”.
